Values from PubChem BioAssay AID1259425 (University of Nebraska Medical Center, 2018)
Aim: 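Seek colon cancer weak points whose silencing resembles KSR1 loss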 (primary screen). System: HCT116 human colon cancer cells. Knock-down reagent: siRNA pool against human genes, 50 nM siRNA. Read-out: 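After 50 nM siRNA pool, branched-DNA assay measures six marker transcripts per well, minus blank, normalised to the geometric mean of two housekeeping transcripts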. Reading the numbers: BNIP3L mRNA: higher = more BNIP3L transcript after knockdown; NDRG1 mRNA: higher = more NDRG1 transcript after knockdown; BNIP3 mRNA: higher = more BNIP3 transcript after knockdown; ALDOC mRNA: higher = more ALDOC transcript after knockdown; ACSL5 mRNA: higher = more ACSL5 transcript after knockdown.
Shown is an unselected part of about 14,000 reagents. Not stated in the record: the time to read-out.

gene | PubChem SID | BNIP3L mRNA, set 1 | NDRG1 mRNA, set 1 | BNIP3 mRNA, set 1 | ALDOC mRNA, set 1 | ACSL5 mRNA, set 1
PARP14 | SID364005369 | 0.114 | 0.13 | 0.327 | 0.0544 | 0.16
LSM4 | SID363998231 | 0.214 | 0.248 | 0.456 | 0.0306 | 0.123
DOK5 | SID364004902 | 0.0604 | 0.21 | 0.221 | 0.0117 | 0.109
CSF1 | SID363992050 | 0.0607 | 0.124 | 0.225 | 0.0142 | 0.149
SLC1A4 | SID363994187 | 0.141 | 0.343 | 0.335 | 0.0316 | 0.23
ETS2 | SID363996160 | 0.11 | 0.264 | 0.247 | 0.0147 | 0.215
DNAH8 | SID363992644 | 0.0388 | 0.329 | 0.169 | 0.0185 | 0.19
TNS2 | SID363999413 | 0.0899 | 0.183 | 0.316 | 0.0291 | 0.209
RS1 | SID363991662 | 0.111 | 0.327 | 0.34 | 0.00769 | 0.121
CD177 | SID364001670 | 0.139 | 0.153 | 0.21 | 0.0237 | 0.32
SYVN1 | SID364003979 | 0.104 | 0.209 | 0.278 | 0.0674 | 0.194
UIMC1 | SID364000011 | 0.155 | 0.133 | 0.596 | 0.0178 | 0.0985
PRLHR | SID363995246 | 0.133 | 0.0962 | 0.285 | 0.0483 | 0.135
SOCS6 | SID363995231 | 0.0819 | 0.0985 | 0.255 | 0.0225 | 0.162
BRD4 | SID363998731 | 0.166 | 0.169 | 0.36 | 0.019 | 0.0695
TMEM79 | SID364003909 | 0.0973 | 0.136 | 0.347 | 0.0484 | 0.638
DMGDH | SID363998497 | 0.196 | 0.203 | 0.212 | 0.0428 | 0.318
SPATA22 | SID364004086 | 0.0701 | 0.242 | 0.209 | 0.0235 | 0.139
CNR1 | SID363999856 | 0.0825 | 0.208 | 0.316 | 0.0483 | 0.156
RPP25 | SID364000532 | 0.288 | 0.091 | 0.362 | 0.0272 | 0.0489

Limited to “BNIP3L mRNA, set 1”, for 2 of the entries above:
TMEM79 [SID364003909]: 0.0973
DMGDH [SID363998497]: 0.196
